Laboratory results published in doi:10.1101/2020.05.03.074682.
These are yes or no findings as the source states them, for the method shown. Binding seen in cells or lysates may run through a third protein. Where a sequence is shown, tags or fusion partners need not be part of it.

Amino acid sequences for entries named in this document (tags omitted).
UniProt Q9BQQ3: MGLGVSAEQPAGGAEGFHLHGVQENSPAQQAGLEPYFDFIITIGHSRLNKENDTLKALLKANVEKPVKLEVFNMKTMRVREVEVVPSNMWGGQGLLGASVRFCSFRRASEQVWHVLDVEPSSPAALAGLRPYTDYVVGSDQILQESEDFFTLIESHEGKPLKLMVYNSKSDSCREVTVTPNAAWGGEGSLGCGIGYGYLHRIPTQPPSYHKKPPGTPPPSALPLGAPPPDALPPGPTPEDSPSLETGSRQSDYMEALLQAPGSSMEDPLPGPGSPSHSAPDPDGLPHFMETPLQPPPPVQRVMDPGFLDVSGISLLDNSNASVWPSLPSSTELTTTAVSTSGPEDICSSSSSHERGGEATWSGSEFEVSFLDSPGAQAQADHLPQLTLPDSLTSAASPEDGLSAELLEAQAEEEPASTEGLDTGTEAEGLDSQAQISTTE

Molecular target: T1, HA-tagged GlcCer synthase (GCS) (UniProt Q16739)
T1 sequence: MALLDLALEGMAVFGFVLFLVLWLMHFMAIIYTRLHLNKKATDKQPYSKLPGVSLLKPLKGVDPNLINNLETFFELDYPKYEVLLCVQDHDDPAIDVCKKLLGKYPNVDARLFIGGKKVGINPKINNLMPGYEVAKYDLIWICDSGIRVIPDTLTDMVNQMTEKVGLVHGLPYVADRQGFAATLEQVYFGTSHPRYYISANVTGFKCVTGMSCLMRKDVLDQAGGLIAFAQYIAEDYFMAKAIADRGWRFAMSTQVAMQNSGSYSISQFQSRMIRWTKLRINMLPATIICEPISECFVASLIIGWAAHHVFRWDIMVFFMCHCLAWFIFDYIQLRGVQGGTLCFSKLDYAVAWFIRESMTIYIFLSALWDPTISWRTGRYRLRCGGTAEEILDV
Experiment: co-IP

Substance: GRASP65 (from UniProt Q9BQQ3 1-440)
- binding: no binding
